Test results from publication PMC12583513, “Deciphering the molecular mechanism of the bacterial division motor TolQRA” (Cell Discovery, 2025).
These are yes or no findings as the source states them, for the method shown. Binding seen in cells or lysates may run through a third protein. Some results given as binding are weak or reduced against the parent protein; the word gives no strength. Sequences can lack the tags named with a protein.

By UniProt entry, the sequences of proteins in these tests, tags left out.
UniProt P0ABV6: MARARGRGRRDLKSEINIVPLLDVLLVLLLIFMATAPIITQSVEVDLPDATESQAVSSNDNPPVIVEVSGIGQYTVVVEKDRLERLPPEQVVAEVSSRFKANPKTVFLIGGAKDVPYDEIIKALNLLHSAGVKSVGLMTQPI

Target: T1, TolA_H22A with C-terminal eight-histidine tag (Escherichia coli (strain K12)) (UniProt P19934)
T1 sequence: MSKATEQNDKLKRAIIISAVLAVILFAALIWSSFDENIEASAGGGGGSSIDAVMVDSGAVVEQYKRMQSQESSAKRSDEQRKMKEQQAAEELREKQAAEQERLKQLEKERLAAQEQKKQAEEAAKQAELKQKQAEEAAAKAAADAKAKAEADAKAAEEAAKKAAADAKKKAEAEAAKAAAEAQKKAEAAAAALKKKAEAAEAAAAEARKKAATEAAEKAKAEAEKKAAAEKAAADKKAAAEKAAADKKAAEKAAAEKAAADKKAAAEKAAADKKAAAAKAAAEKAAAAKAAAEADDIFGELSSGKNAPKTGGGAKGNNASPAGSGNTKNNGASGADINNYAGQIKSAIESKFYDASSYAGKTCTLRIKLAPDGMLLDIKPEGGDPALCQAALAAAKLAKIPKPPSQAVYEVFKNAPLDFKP
Assay: pull-down; Ni-NTA agarose capture of TolA-His from 1% DDM-solubilised lysate of TolQRA knockout cells expressing pTRC99a-TolQ(Myc)R(Strep)A(His) variants; wash 30 mM imidazole, 0.02% LMNG, 0.004% CHS; western blot with anti-His, anti-Myc, anti-Strep

TolR with C-terminal strep-tag (from UniProt P0ABV6 1-142)
binding: binds
